The values below come from patent publication CN111057148A.

Sequences of proteins named here, by UniProt entry; tags and fusion partners are left off. Residues count along the entry.
UniProt P02769, residues 25-607: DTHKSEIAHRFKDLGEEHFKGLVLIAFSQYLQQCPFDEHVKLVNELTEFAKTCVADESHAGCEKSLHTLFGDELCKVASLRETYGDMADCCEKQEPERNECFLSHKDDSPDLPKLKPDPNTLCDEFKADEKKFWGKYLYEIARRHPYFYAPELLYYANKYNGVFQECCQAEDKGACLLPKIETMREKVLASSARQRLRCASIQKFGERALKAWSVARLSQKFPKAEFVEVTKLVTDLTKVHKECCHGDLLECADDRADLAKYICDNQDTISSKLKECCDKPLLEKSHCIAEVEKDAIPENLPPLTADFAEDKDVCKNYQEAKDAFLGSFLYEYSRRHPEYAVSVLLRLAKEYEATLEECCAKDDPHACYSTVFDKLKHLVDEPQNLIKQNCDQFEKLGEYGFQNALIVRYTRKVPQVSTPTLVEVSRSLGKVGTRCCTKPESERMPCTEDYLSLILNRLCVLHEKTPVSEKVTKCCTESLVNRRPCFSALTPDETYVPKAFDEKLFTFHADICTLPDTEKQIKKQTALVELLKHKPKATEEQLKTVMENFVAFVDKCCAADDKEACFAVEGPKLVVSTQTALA

Numbering of substitutions follows the chain as printed. These are yes or no findings as the source states them, for the method shown. Some binding calls cover weakened binding; strength is not graded here.

One assay has as its target 牛血清白蛋白(BSA) (牛 (bovine)) (UniProt P02769). In words: ELISA, BSA coated 100 ng/100 µL, E. coli-expressed VHH, HRP anti-HA detection, OD450. (In general: ELISA stands for enzyme-linked immunosorbent assay.)
Assay [1] addresses 生物素标记的BSA蛋白(BSA-Biotin) (牛 (bovine)) (UniProt P02769). In words: ELISA of crude periplasmic extract on BSA-Biotin captured by neutravidin; positive = OD450 more than 5x control well.

B1: 单域抗体2D10 (VHH, not shown: small tags and cut ends)
VHH: QVQLQESGGGSVQAGGSLRLSCAASEYTSSVTFMGWVRQAPGKEREGVATIYTVTGRTYYADSVKGRFTISQDKAKNTVYLQMDSLKPEDTAMYYCAATPFSLSKTTRLAKFGSLNENEYDLWGQGTQVTVSS
For the molecule B1, the binding result (with 牛血清白蛋白(BSA) (牛 (bovine)); in assay [1]) was “binds” throughout.

B2: 单域抗体1D3 (VHH, not shown: small tags and cut ends)
VHH: B1 VHH with G35A, T58S, D84N, T106A
For B2, the binding result (with 牛血清白蛋白(BSA) (牛 (bovine)); in assay [1]) was “binds” each time.

B3: 单域抗体2D11 (VHH, not shown: small tags and cut ends)
VHH: B1 VHH with V54P, D84N
As to B3, the binding result (with 牛血清白蛋白(BSA) (牛 (bovine)); in assay [1]) was “binds” in each case.

B4: 单域抗体2B1 (VHH, not shown: small tags and cut ends)
VHH: QVQLQESGGGSVQAGGSLRLSCAVSGYTLSNKWMGWFRQAPGKEREGVAAIYTGGGRTDYADSVKGRFTISQDNAQNTLYLQMNSLKPEDTAMYYCAAARGYGQNWYRTLRTEAYDIWGQGTQVTVSS
Turning to B4, the binding result (with 牛血清白蛋白(BSA) (牛 (bovine)); in assay [1]) was “binds” in each case.

B5: 单域抗体2D6 (VHH, not shown: small tags and cut ends)
VHH: QVQLQESGGGSVQTGGSLRLSCAASGNSDGAWSMGWFRQAPGKEREGVAALYVFTGITYYAGSVKGRFTISQDKAKNTVYLQMNSLKPEDTAMYYCAAGTAFPTLNRNKYNYWGQGTQVTVSS
With B5, the binding result (with 牛血清白蛋白(BSA) (牛 (bovine)); in assay [1]) was “binds” throughout.

B6: 单域抗体1A2 (VHH, not shown: small tags and cut ends)
VHH: QVQLQESGGGSVQAGGSLRLSCTASGFTSDDSDMGWYRQAPGNECELVSVVRSDGTTYYPPSVRGRFTISQDNAKNTVSLQMNSLKPEDTAVYYCAADPSPYYRDYGAPGCGFNYWGQGTQVTVSS
For the molecule B6, the binding result (with 牛血清白蛋白(BSA) (牛 (bovine)); in assay [1]) was “binds” in each case.

B7: 单域抗体2C10 (VHH, not shown: small tags and cut ends)
VHH: QVQLQESGGGSVQAGGSLRLSCVASGYTFSSDCMGWFRQAPGKKREGVAAIYTSGSSTYYADSVKGRFTISRDNAKNTVYLEMNSLKPEDTAIYYCAARRSSGGYCYIGSDFQISLYNNWGQGTQVTVSS
Take B7: the binding entry (in the assay with 牛血清白蛋白(BSA) (牛 (bovine)); in assay [1]) was “binds” each time.

B8: 单域抗体1C9 (VHH, not shown: small tags and cut ends)
VHH: QVQLQESGGGSVRAGGSLRLSCAASGYTSSSYCMGWFRQAPGKEREGVAAIYTDTGGGSTYYADSVKGRFTISQGNAKNTLYLQMNSLKPEDTAMYYCAAVERRGGSCYTRYKYAAFAYWGQGTQVTVSS
For the molecule B8, the binding result (with 牛血清白蛋白(BSA) (牛 (bovine)); in assay [1]) was “binds” throughout.

B9: 单域抗体2C6 (VHH, not shown: small tags and cut ends)
VHH: QVQLQESGGGSVQAGGSLRLSCAASGSADRRNYVAWFRQAPGKEREGVAALGIVSGFTHYADSVKGRFTISQDNARNTVYLQMNRMIPEDTAMYYCAADSRTRVLISWFLNPDKYNYWGRGTQVTVSS
On to B9, for which the binding entry (with 牛血清白蛋白(BSA) (牛 (bovine)); in assay [1]) was “binds” throughout.

B10: 单域抗体2B3 (VHH, not shown: small tags and cut ends)
VHH: B9 VHH with A14T, A28T, V34M, L51I, I53T, V54I, L105I, S107G
On to B10, for which the binding result (in the assay with 牛血清白蛋白(BSA) (牛 (bovine)); in assay [1]) was “binds” in each case.

B11: 单域抗体1C10 (VHH, not shown: small tags and cut ends)
VHH: QVQLQESGGGSVQAGGSLRLSCAVSGLTYSSNCMGWFRQAPGKEREGVAAIYNGGNTYYADSVKGRFTISRDNAKNTVYLEMNSLKPEDTAIYYCAARRSSGGYCYIGSDFQISLFNNWGQGTQVTVSS
Consider B11, for which the binding entry (with 牛血清白蛋白(BSA) (牛 (bovine)); in assay [1]) was “binds” throughout.

B12: 单域抗体1C1 (VHH, not shown: small tags and cut ends)
VHH: QVQLQESGGGSVQAGGSLRLSCTASGFSLDDRDMGWYRQAPGNECELVSVIRSDGRTYYPDSVKGRFTISQDNAKRTLYLQMNSLKAEDTAVYYCAADPSRRYSDYGAPGCGFNYWGQGTQVTVSS
As for B12, the binding result (in the assay with 牛血清白蛋白(BSA) (牛 (bovine)); in assay [1]) was “binds” in each case.

B13: 单域抗体1C3 (VHH, not shown: small tags and cut ends)
VHH: B12 VHH with R56S, R76N, A87P, R102Y
Consider B13, for which the binding result (with 牛血清白蛋白(BSA) (牛 (bovine)); in assay [1]) was “binds” in each case.

B14: 单域抗体2C5 (VHH, not shown: small tags and cut ends)
VHH: B12 VHH with R56S, R76N, A87P, R102Y, N114H
Turning to B14, the binding result (in the assay with 牛血清白蛋白(BSA) (牛 (bovine)); in assay [1]) was “binds” each time.

B15: 单域抗体2A4 (VHH, not shown: small tags and cut ends)
VHH: QVQLQESGGGSVQAGGSLRLSCAASSYTGSVNYMAWFRQAPGKEREGVAAIYSGGGSTYYADSVKGRFTISRDNAKNTVYLQMNSLIPEDTATYYCASDQSRRSWFSPLVPGKYSLWGQGTQVTVSS
With B15, the binding result (with 牛血清白蛋白(BSA) (牛 (bovine)); in assay [1]) was “binds” in each case.

B16: 单域抗体1A5 (VHH, not shown: small tags and cut ends)
VHH: QVQLQESGGGSVQAGGSLRLACAASGYTYSSSYMGWFRQAPGKEREGVAVIYTGGGRTYYADSVKGRFTVSRDNAKNTVYLQMNSLKPEDTAMYYCAADGSRRNWFSPLDPRKYNYWGQGTQVTVSS
Take B16: the binding entry (in the assay with 牛血清白蛋白(BSA) (牛 (bovine)); in assay [1]) was “binds” each time.

B17: 单域抗体2B4 (VHH, not shown: small tags and cut ends)
VHH: B16 VHH with S11L, A14P, A21S, G54F, V70I, F106Y, P108Q, N115L
As for B17, the binding entry (with 牛血清白蛋白(BSA) (牛 (bovine)); in assay [1]) was “binds” throughout.

B18: 单域抗体1D8 (VHH, not shown: small tags and cut ends)
VHH: B16 VHH with A21S, G54T, V70I, F106Y
As for B18, the binding result (with 牛血清白蛋白(BSA) (牛 (bovine)); in assay [1]) was “binds” throughout.

B19: 单域抗体2B9 (VHH, not shown: small tags and cut ends)
VHH: B16 VHH with S11L, A14P, G54S, F106Y
B19: the binding entry (with 牛血清白蛋白(BSA) (牛 (bovine)); in assay [1]) was “binds” each time.

B20: 单域抗体2A7 (VHH, not shown: small tags and cut ends)
VHH: B16 VHH with A21S, G54T, V70I, F106Y, P108Q
Regarding B20, the binding entry (in the assay with 牛血清白蛋白(BSA) (牛 (bovine)); in assay [1]) was “binds” each time.

B21: 单域抗体2C9 (VHH, not shown: small tags and cut ends)
VHH: B16 VHH with G54A, P108Q
Take B21: the binding result (in the assay with 牛血清白蛋白(BSA) (牛 (bovine)); in assay [1]) was “binds” in each case.

B22: 单域抗体2D2 (VHH, not shown: small tags and cut ends)
VHH: B16 VHH with G54S, F106Y
B22: the binding entry (with 牛血清白蛋白(BSA) (牛 (bovine)); in assay [1]) was “binds” each time.

B23: 单域抗体1A10 (VHH, not shown: small tags and cut ends)
VHH: B16 VHH with S11L, A21S, G54T, V70I, F106Y, P108Q
Consider B23, for which the binding entry (with 牛血清白蛋白(BSA) (牛 (bovine)); in assay [1]) was “binds” in each case.

B24: 单域抗体1B7 (VHH, not shown: small tags and cut ends)
VHH: B16 VHH with G16E, A21S, V70I, K76E, Q82R, F106Y
As for B24, the binding entry (in the assay with 牛血清白蛋白(BSA) (牛 (bovine)); in assay [1]) was “binds” each time.

B25: 单域抗体1D11 (VHH, not shown: small tags and cut ends)
VHH: QVQLQESGGGSVQAGGSLRLSCTASGYTHRMAWFRQAPGKEREGVAAIYTDVGHTYYAASVKGRFTIAQDNANNTAYLQMNSLKPEDTAIYYCAAARGGYSWRKVNEYNYWGQGTQVTVSS
In the case of B25, the binding result (with 牛血清白蛋白(BSA) (牛 (bovine)); in assay [1]) was “binds” throughout.

B26: 单域抗体2D5 (VHH, not shown: small tags and cut ends)
VHH: QVQLQESGGGSVQAGGSLRLSCTASGFTPDGSDMGWYRQAPGNECELVSVIRSGGSTYYTDSVKGRFTISRDNAKNTLYLQMNSLKPEDTAVYYCAADPSRYYSDYGAPGCGFHYWGQGTQVTVSS
On to B26, for which the binding entry (with 牛血清白蛋白(BSA) (牛 (bovine)); in assay [1]) was “binds” each time.

B27: 单域抗体1B2 (VHH, not shown: small tags and cut ends)
VHH: QVQLQESGGGTVQAGGSLTLSCAASGYTYNYMGWFRQAPGKEREGVAAIATSSGRAYYADSVKGRFTISQDNGKNTLHLQMNSLKPEDTAMYYCAAGSHYSGYSLSPGRYKYWGQGTQVTVSS
Take B27: the binding entry (with 牛血清白蛋白(BSA) (牛 (bovine)); in assay [1]) was “binds” in each case.

B28: 单域抗体1B3 (VHH, not shown: small tags and cut ends)
VHH: B27 VHH with A50S, A59V, G73A, L77T, H78Y, L105I
Turning to B28, the binding result (in the assay with 牛血清白蛋白(BSA) (牛 (bovine)); in assay [1]) was “binds” each time.

B29: 单域抗体1C2 (VHH, not shown: small tags and cut ends)
VHH: B27 VHH with A50H, S52G, A56T, A59I, G73A, L77T, H78N, N82T, S101A, L105M
As for B29, the binding entry (with 牛血清白蛋白(BSA) (牛 (bovine)); in assay [1]) was “binds” each time.

B30: 单域抗体2C11 (VHH, not shown: small tags and cut ends)
VHH: B27 VHH with A48V, I49M, A50H, S52G, A59V, Q70R, G73A, L77V, L105M
B30: the binding entry (with 牛血清白蛋白(BSA) (牛 (bovine)); in assay [1]) was “binds” in each case.

B31: 单域抗体2A11 (VHH, not shown: small tags and cut ends)
VHH: QVQLQESGGGSVQAGGSLRLSCTASGFTLDDSDLGWYRQAPGNECELVSIIRRDGSPYHTYYPDSVKGRFTISQDNAKNTLYLQMNSLKPEDTAVYYCAADPSRYYSDYGAPGCGFNYWGQGTQVTVSS
Take B31: the binding result (in the assay with 牛血清白蛋白(BSA) (牛 (bovine)); in assay [1]) was “binds” throughout.
